Results published in the supplement of paper PMC10849652.
Some of the results follow.

Protein sequences, listed by entry. Tags and fused reporters are not part of them. Lines headed by an entry give the natural chain unless they say otherwise; changes in a name come on top.
UniProt Q8IWA0: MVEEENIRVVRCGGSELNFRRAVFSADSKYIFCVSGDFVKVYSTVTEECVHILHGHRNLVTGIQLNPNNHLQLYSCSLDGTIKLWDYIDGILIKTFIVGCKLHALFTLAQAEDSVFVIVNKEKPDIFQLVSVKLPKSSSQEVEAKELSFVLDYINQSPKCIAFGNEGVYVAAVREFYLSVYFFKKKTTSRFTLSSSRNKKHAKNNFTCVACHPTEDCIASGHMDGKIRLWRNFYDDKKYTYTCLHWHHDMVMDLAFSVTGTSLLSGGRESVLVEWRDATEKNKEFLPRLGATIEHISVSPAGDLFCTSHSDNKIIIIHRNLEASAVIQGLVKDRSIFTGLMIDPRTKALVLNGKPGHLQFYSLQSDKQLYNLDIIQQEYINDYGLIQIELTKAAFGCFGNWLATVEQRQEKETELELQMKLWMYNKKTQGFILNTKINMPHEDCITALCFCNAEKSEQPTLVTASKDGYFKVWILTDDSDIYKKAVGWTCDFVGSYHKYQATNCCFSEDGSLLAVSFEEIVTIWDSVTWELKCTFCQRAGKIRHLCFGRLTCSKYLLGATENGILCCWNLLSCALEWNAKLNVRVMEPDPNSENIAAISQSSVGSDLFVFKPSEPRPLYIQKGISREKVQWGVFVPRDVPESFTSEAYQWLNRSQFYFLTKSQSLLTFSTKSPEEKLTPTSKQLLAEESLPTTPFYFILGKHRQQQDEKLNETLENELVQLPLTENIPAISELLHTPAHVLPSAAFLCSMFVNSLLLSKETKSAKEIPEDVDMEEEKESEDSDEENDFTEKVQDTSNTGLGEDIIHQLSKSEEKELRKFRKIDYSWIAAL
UniProt P57081: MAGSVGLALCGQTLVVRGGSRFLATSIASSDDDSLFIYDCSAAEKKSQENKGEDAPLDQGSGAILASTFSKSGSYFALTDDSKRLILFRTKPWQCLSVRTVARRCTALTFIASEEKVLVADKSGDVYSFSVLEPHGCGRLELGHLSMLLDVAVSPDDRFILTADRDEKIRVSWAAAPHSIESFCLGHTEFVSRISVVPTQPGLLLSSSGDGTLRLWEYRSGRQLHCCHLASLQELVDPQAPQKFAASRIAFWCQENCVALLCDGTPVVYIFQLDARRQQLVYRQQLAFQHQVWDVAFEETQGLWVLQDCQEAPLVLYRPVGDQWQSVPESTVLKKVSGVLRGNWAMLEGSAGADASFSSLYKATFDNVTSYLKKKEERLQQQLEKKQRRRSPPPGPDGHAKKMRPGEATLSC
UniProt Q9P1Q0: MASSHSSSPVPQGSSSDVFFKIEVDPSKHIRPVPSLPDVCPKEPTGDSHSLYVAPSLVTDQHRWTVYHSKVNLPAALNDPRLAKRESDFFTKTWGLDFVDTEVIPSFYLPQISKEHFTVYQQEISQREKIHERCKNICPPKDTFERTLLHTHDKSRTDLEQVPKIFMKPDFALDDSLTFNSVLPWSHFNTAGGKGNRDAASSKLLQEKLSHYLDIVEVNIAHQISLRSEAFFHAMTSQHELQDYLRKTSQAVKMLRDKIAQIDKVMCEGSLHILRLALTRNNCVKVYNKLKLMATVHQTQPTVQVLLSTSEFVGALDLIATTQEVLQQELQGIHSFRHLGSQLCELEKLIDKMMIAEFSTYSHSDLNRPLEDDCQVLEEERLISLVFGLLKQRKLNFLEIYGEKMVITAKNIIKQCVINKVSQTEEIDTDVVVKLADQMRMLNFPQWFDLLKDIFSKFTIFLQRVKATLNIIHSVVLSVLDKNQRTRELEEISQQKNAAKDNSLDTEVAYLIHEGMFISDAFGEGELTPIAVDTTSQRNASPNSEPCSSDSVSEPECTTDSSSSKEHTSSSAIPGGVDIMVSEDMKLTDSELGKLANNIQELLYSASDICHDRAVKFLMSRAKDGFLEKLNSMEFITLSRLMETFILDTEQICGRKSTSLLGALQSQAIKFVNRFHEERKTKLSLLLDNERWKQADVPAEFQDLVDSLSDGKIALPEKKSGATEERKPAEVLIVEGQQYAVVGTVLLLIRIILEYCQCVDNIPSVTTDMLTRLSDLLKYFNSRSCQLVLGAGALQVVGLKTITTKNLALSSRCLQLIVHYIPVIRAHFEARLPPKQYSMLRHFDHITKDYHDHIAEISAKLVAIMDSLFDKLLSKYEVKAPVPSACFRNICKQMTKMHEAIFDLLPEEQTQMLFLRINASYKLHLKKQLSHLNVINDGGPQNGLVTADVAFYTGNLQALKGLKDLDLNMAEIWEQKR
UniProt Q8NEZ3: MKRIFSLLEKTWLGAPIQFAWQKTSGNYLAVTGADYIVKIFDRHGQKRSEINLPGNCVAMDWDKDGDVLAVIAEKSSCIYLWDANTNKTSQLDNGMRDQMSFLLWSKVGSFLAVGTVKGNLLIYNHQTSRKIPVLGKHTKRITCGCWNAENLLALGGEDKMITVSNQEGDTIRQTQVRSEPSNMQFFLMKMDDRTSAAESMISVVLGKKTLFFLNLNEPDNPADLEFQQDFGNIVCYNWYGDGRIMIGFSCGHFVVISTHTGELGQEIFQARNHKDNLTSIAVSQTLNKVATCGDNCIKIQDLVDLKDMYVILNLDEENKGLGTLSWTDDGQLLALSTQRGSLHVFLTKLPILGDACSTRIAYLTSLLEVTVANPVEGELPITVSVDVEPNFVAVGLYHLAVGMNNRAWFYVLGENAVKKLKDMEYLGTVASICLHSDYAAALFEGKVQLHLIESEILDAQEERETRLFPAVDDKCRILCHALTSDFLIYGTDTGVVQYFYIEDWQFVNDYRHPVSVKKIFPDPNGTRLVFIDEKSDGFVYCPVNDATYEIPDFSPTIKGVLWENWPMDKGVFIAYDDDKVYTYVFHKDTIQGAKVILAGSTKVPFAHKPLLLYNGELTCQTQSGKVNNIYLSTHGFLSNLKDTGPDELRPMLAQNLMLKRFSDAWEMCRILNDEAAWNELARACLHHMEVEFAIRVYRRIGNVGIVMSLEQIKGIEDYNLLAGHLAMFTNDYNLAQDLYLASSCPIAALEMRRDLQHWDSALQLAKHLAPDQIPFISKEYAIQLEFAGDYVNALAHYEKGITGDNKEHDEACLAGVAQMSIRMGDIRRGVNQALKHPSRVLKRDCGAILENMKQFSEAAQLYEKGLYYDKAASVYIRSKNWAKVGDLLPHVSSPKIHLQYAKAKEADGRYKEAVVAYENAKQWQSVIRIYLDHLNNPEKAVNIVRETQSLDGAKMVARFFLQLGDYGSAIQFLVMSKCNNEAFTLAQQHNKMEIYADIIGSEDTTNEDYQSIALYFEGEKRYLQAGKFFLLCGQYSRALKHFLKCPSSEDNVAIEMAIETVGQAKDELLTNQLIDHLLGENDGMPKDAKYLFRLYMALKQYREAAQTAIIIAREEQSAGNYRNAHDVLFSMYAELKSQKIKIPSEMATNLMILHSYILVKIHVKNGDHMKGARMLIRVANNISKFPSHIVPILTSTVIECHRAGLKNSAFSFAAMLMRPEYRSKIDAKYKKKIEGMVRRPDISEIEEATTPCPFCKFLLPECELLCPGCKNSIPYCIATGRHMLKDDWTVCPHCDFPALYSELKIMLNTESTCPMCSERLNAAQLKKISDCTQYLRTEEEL
UniProt A5D8V6: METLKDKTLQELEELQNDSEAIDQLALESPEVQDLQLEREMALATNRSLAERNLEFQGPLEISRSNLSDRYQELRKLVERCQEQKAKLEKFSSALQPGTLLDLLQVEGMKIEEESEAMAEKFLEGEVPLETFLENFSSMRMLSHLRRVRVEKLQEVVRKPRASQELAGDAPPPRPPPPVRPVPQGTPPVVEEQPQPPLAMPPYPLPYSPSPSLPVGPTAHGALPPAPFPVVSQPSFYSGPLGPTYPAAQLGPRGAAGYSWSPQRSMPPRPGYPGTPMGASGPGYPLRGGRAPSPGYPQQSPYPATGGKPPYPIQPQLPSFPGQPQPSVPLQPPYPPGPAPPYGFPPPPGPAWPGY
UniProt P09327: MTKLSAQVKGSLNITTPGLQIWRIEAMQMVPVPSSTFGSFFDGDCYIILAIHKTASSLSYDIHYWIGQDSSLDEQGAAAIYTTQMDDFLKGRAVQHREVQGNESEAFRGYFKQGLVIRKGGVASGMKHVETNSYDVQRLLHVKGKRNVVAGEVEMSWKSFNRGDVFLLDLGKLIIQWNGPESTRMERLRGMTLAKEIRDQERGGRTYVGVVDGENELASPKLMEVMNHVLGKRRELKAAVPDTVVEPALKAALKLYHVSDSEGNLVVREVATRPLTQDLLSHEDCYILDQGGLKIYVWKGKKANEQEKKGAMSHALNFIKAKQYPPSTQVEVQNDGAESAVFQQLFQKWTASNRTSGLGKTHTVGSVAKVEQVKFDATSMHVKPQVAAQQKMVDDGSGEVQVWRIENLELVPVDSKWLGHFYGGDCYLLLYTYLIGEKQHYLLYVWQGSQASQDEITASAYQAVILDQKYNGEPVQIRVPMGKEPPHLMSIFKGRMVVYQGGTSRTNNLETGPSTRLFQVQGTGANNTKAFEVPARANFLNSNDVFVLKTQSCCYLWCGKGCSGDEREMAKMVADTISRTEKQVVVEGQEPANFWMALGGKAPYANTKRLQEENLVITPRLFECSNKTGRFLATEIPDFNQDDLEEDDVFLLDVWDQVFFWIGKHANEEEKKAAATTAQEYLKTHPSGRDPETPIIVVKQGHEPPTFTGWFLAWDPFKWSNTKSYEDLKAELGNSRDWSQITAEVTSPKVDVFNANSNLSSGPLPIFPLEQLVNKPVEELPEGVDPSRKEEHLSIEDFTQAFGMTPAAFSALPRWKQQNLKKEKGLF
UniProt Q92558: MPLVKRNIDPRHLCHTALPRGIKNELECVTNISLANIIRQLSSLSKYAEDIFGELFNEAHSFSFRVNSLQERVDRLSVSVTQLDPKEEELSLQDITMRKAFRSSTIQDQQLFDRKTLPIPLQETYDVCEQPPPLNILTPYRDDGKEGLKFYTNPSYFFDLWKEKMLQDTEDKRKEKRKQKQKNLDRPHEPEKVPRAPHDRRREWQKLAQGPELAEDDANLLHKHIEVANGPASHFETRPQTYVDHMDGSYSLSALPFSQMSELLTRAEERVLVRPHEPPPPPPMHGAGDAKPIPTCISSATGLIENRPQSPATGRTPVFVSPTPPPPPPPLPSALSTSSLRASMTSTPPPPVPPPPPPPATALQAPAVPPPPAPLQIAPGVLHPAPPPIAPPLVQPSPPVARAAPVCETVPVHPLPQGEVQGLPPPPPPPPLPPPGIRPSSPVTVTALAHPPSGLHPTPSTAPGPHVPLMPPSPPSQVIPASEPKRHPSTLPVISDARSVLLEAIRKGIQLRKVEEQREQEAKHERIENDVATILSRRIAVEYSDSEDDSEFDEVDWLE
UniProt Q502W6: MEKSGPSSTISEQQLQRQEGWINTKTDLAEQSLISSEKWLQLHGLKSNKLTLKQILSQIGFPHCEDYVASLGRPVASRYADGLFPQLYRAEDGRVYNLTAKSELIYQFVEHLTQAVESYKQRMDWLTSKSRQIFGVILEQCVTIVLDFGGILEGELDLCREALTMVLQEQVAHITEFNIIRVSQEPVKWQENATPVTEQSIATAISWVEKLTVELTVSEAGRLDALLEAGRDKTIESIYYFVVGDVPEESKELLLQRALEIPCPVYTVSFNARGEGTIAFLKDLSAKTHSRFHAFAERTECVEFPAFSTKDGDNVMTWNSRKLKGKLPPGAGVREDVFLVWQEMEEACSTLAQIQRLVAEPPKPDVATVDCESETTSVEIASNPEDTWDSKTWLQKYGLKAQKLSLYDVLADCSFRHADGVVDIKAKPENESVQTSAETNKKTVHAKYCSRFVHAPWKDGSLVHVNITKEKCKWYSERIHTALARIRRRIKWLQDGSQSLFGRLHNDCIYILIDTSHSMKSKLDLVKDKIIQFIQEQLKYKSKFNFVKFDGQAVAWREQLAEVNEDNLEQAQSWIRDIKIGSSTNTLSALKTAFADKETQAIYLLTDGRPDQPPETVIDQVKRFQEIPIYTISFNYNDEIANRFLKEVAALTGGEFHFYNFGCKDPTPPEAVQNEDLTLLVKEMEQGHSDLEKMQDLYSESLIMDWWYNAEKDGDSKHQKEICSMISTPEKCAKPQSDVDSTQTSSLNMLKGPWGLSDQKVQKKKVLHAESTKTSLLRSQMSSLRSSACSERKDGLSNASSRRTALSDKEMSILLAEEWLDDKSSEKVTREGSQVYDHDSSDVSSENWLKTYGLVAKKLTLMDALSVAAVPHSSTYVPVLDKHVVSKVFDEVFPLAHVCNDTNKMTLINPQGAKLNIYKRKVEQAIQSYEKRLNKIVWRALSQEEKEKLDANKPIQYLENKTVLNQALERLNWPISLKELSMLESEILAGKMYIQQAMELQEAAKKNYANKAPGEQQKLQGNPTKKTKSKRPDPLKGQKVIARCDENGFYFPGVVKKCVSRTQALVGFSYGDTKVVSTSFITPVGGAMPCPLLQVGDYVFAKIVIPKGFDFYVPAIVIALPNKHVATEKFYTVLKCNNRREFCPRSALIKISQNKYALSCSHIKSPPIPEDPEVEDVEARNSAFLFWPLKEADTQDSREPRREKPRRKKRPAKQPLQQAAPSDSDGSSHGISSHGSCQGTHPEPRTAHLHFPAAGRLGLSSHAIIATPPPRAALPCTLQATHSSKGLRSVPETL

Columns and labels:
Test in all cases: log2 fold change, soluble protein after heating vs DMSO (PISA); higher = thermal stabilisation; K562 cells, 10 uM, 30 min; active = over 0.2 and 3.5 SD of the protein, either way, in both replicates (recomputed)
[1] = compound: CC1=C(C=C(C=C1)NC(=O)C2=CC(=CC=C2)N(C)C)NC(=O)C3=CC=C(C=C3)O
Method in brief: (§1)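 For each measurement, 10 μM compound was applied for 30 min to K562 cells at 2×10^6 cells/mL. Aliquots were heated for 3 min across 48°C-58°C, pooled, and extracted in PBS with 0.5% NP-40 at 4°C; the supernatant after 21,000xg for 90 min was soluble protein. This was quantified by TMTpro 16plex LC-MS/MS with channel sums equalised, and thermal stability was reported relative to control samples from duplicates, on a log2 fold-change scale.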

[2] = compound: CC1=CC=C(C=C1)SC2=C3C=C(SC3=CN=C2)C(=O)N
Method in brief: as §1

[3] = compound: CC1=NC(=CC=C1)C2=C(N=C(N2)C(C)(C)C)C3=CC4=NC=CN=C4C=C3
Method in brief: as §1

Nexturastat A = compound: CCCCN(Cc1ccc(C(=O)NO)cc1)C(=O)Nc1ccccc1 [Nexturastat A]
Method in brief: as §1

vemurafenib = compound: CCCS(=O)(=O)Nc1ccc(F)c(C(=O)c2c[nH]c3ncc(-c4ccc(Cl)cc4)cc23)c1F [vemurafenib]
Method in brief: as §1

[4] = compound: CCCS(=O)(=O)Nc1ccc(F)c(C(=O)c2c[nH]c3ncc(Cl)cc23)c1F
Method in brief: as §1

[5] = compound: CCCc1cc(C)[nH]c(=O)c1CNC(=O)c1cc(-c2ccnc(N3CCN(C)CC3)c2)cc2c1cnn2C(C)C
Method in brief: as §1

barasertib = compound: CCN(CCCOc1ccc2c(Nc3cc(CC(=O)Nc4cccc(F)c4)[nH]n3)ncnc2c1)CCOP(=O)(O)O [barasertib]
Method in brief: as §1

volasertib = compound: CC[C@@H]1C(=O)N(C)c2cnc(Nc3ccc(C(=O)N[C@H]4CC[C@H](N5CCN(CC6CC6)CC5)CC4)cc3OC)nc2N1C(C)C [volasertib]
Method in brief: as §1

[6] = compound: CC[C@H](C)N1C=C(C2=C(C=C(C=C21)C3=CN=C(C=C3)N4CCNCC4)C(=O)NCC5=C(C=C(NC5=O)C)C)C
Method in brief: as §1

epoxomicin = compound: CC[C@H](C)[C@@H](C(=O)N[C@@H]([C@@H](C)O)C(=O)N[C@@H](CC(C)C)C(=O)[C@]1(CO1)C)NC(=O)[C@H]([C@@H](C)CC)N(C)C(=O)C [epoxomicin]
Method in brief: as §1

[7] = compound: CN(C)CC(=O)Nc1ccc2[nH]c(=O)c3ccccc3c2c1
Method in brief: as §1

[8] = compound: CN1C2=C(C3=C1C(=O)N(N=C3)CC4=CC(=CC=C4)N)SC(=C2)S(=O)C
Method in brief: as §1

[9] = compound: CC1=C(C=C(C=C1)NC(=O)C2=CC(=CC=C2)C(C)(C)C#N)NC3=CC4=C(C=C3)N=CN(C4=O)C
Method in brief: as §1

[10] = compound: CCn1cc(-c2ccnc3[nH]c(-c4cccc(CN(C)C)c4)cc23)c(-c2ccc(NC(=O)N(C)C)cc2)n1
Method in brief: as §1

[11] = compound: CN1CCC(CNc2ccc3ncc(-c4cccc(OC(F)(F)F)c4)n3n2)CC1
Method in brief: as §1

givinostat = compound: CCN(CC)Cc1ccc2cc(COC(=O)Nc3ccc(C(=O)NO)cc3)ccc2c1 [givinostat]
Method in brief: as §1

[12] = compound: CC[C@@H]1C(=O)N(C)c2cnc(Nc3ccc(C(=O)NC4CCN(C)CC4)cc3OC)nc2N1C1CCCC1
Method in brief: as §1

[13] = compound: CCn1c(C(=O)N(C2CC2)C2CC2)cc2c3c(ncn3C)c(Nc3cc(C)n(C)n3)nc21
Method in brief: as §1

rosiglitazone = compound: CN(CCOC1=CC=C(C=C1)C[C@H]2C(=O)NC(=O)S2)C3=CC=CC=N3 (racemic) [rosiglitazone]
Method in brief: as §1

Target	log2 fold change [1]	log2 fold change [2]	log2 fold change [3]	log2 fold change (Nexturastat A)	log2 fold change (vemurafenib)	log2 fold change [4]	log2 fold change [5]	log2 fold change (barasertib)	log2 fold change (volasertib)	log2 fold change [6]	log2 fold change (epoxomicin)	log2 fold change [7]	log2 fold change [8]	log2 fold change [9]	log2 fold change [10]	log2 fold change [11]	log2 fold change (givinostat)	log2 fold change [12]	log2 fold change [13]	log2 fold change (rosiglitazone)
WDR75 (UniProt Q8IWA0)	inactive: 0.007	inactive: 0.043	inactive: -0.053	inactive: 0.395	inactive: -0.126	inactive: -0.069	inactive: 0.107	inactive: 0.025	inactive: -0.153	inactive: -0.041	inactive: -0.156	inactive: -0.073	inactive: 0.166							
VDAC2 (UniProt Q5JSD1)	inactive: 0.065	inactive: -0.086		inactive: -0.055		inactive: -0.073	inactive: -0.239	inactive: 0.047	inactive: 0.036	inactive: -0.337	inactive: -0.215									
WDR4 isoform 3 (UniProt P57081)				inactive: -0.031				inactive: 0.08			inactive: 0.017			inactive: -0.041	inactive: -0.044	inactive: -0.036				
VPS54 (UniProt Q9P1Q0)					inactive: 0.117							inactive: 0.193					inactive: 0.191	inactive: 0.097	inactive: -0.129	
VPS35, A0A1W2PP10		inactive: -0.098	inactive: -0.02	inactive: 0.214	inactive: 0.02	inactive: -0.002	inactive: 0.136	inactive: 0.012	inactive: -0.087	inactive: 0.039	inactive: 0.176	inactive: -0.138						inactive: -0.15		inactive: -0.078
WDR19 (UniProt Q8NEZ3)	inactive: -0.016	inactive: 0.107			inactive: -0.274	inactive: -0.142		inactive: -0.028	inactive: 0.24			inactive: -0.117	inactive: -0.097					inactive: -0.004		inactive: 0.004
WDR76 (UniProt Q9H967)		inactive: 0.009		inactive: 0.418		inactive: 0.007			inactive: 0.016		inactive: 0.11									
VPS37C (UniProt A5D8V6)		inactive: -0.035	inactive: -0.046	inactive: 0.11	inactive: 0.097	inactive: -0.007	inactive: 0.021	inactive: -0.019	inactive: -0.264	inactive: 0.042	inactive: -0.014	inactive: -0.016	inactive: -0.041		inactive: 0.015	inactive: 0.036	inactive: -0.034	inactive: 0.01	inactive: -0.016	inactive: 0.031
VIL1 (UniProt P09327)				inactive: 0.011				inactive: -0.051			inactive: 0.038				inactive: 0.023	inactive: 0.077				inactive: 0.023
WASF1 (UniProt Q92558)	inactive: -0.007	inactive: 0.03	inactive: -0.007	inactive: -0.059	inactive: 0.003	inactive: 0.116	inactive: -0.128	inactive: 0.03	inactive: -0.145	inactive: -0.123	inactive: 0.245	inactive: -0.022	inactive: -0.062		inactive: -0.003	inactive: -0.11	inactive: 0.019	inactive: 0.089	inactive: 0.012	inactive: 0
VWA3B isoform 6 (UniProt Q502W6)	inactive: 0.104	inactive: 0.072	inactive: 0	inactive: -0.292	inactive: -0.1	inactive: 0.008	inactive: -0.169	inactive: 0.057	active: -0.631	inactive: -0.203	inactive: -0.262	inactive: -0.007	inactive: -0.023		inactive: -0.125	inactive: -0.234	inactive: 0.011	inactive: -0.038		
